# This is one part of the list. The main result of the screen is listed elsewhere. These columns were measured beside it and carry no call. Most of these compounds were active or inconclusive in the main read-out, so they are no random draw. Potencies come from curve fits of mixed quality, noted in brackets.
# Test: qHTS Assay for Lipid Storage Modulators in Drosophila S3 Cells;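 as to cell number change: cells counted by Cell Tracker Red CMTPX staining in the red channel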
# Details: BODIPY lipid droplet fluorescence, 18-24 h; for cell number change: measured here: cell count max response, cells fed with added oleic acid
# Procedure, shortened: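 Laser-scanning cytometry quantifies lipid droplet accumulation (500–530 nm total intensity; droplet/cell object ratio) in oleic acid-fed (400 uM added) Drosophila S3 cells treated with a concentration series. 20 uM Triacsin C defined 100% inhibition.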
# [1] = measured here: lipid fluorescence (Fed channel) AC50, cells fed with added oleic acid
# [2] = measured here: cell number channel AC50, cells fed with added oleic acid
Structure (SMILES),cell number change,AC50 [1],AC50 [2]
COc1ccc(-n2c(N)c(C(=O)NCc3ccco3)c3nc4ccccc4nc32)cc1,-22.5%,"5.8 µM [rising, partial curve]",
O=C(CCc1ccccc1)NC(=S)Nc1ccc2c(c1)C(=O)OC2,-41.4%,"6.51 µM [falling, single point]","4.61 µM [falling, single point]"
O=C(c1ccc([N+](=O)[O-])cc1)N1CCN(C(=O)c2cccs2)CC1,13.9%,,"3.66 µM [falling, single point]"
CN(C(=O)CSc1nc2c(c(=O)[nH]1)CCC2)c1ccccc1,8.64%,"0.461 µM [falling, single point]","0.58 µM [falling, single point]"
CCOc1ccc(N(CC)C(=O)COc2cc(=O)n(CC)c3ccccc23)cc1,,,"1.46 µM [rising, partial curve]"
CN(C)c1ccc(N=Cc2nc(-c3ccccc3)oc2O)cc1,10.6%,,
Nc1nc(F)nc2c1ncn2[C@@H]1O[C@H](CO)[C@@H](O)[C@@H]1O,,"1.46 µM [falling, full curve, poor fit]",
CCC(C(=O)OCC(=O)Nc1ccccc1-c1ccccc1)c1ccccc1 (stereo unspecified),10.6%,"5.8 µM [rising, single point]",
Cc1ccc2c(c1)COc1c3ccc(C(=O)O)cc3nn1-2,5.99%,"29.1 µM [rising, single point]",
CCOCc1c(C(=O)NC2=Nc3ccccc3NC(CC)=C2C(=O)OCC)oc2ccccc12,28.6%,,"1.84 µM [rising, partial curve, poor fit]"
O=C(Nc1ccc(N2CCOCC2)c(F)c1)c1cccs1,-42.4%,"6.31 µM [falling, single point]","14.1 µM [falling, partial curve, poor fit]"
CCc1ccc(OCC(=O)NNC(=O)CNC(=O)c2ccc(Br)o2)cc1,0.648%,"10.3 µM [rising, partial curve]",
CC(C)(C)OC(=O)NCc1ccc(CNC(=O)c2[nH]cnc2C(=O)NCC(=O)OCc2ccccc2)cc1,-10.5%,"6.51 µM [rising, single point]",
O=C(COC(=O)CN1C(=O)C2CC=CCC2C1=O)Nc1cc(C(F)(F)F)ccc1N1CCOCC1 (stereo unspecified),38.6%,"6.51 µM [falling, single point]","32.6 µM [rising, single point]"
COc1ccccc1OCC(=O)Nc1ccc(S(=O)(=O)Nc2nccs2)cc1,28.9%,"35.5 µM [falling, single point]",

# 3 structures out of the list, arranged by molecular weight, falling.
Structure (SMILES),cell number change,AC50 [1],AC50 [2]
COc1ccc(-n2c(N)c(C(=O)NCc3ccco3)c3nc4ccccc4nc32)cc1,-22.5%,"5.8 µM [rising, partial curve]",
CCOc1ccc(N(CC)C(=O)COc2cc(=O)n(CC)c3ccccc23)cc1,,,"1.46 µM [rising, partial curve]"
O=C(c1ccc([N+](=O)[O-])cc1)N1CCN(C(=O)c2cccs2)CC1,13.9%,,"3.66 µM [falling, single point]"

# Source: PubChem BioAssay AID2685 (National Center for Advancing Translational Sciences (NCATS), 2010)
